Results are given in words; binding and its absence hold for the method and conditions named. Binding seen in cells or lysates may run through a third protein. Some entries that bind do so weakly or less than the wild type. For part of these data: Tags and fused reporters may be left off the sequences shown.

One experiment addresses T1, HA-tagged ILKAP (UniProt Q9H0C8).
T1 sequence: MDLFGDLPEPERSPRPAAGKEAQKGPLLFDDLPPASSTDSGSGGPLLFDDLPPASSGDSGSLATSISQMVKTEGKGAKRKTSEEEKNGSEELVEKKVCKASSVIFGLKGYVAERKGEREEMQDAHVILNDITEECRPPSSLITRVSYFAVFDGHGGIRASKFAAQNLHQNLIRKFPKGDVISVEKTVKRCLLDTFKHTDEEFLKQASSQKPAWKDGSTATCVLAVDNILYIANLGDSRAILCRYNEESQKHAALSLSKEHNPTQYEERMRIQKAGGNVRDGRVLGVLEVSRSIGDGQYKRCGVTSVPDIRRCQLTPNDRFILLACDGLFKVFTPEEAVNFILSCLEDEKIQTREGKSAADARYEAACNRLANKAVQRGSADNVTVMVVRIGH
Description: co-IP; HEK293 cells co-transfected with Myc-MAEL and HA-ILKAP, lysates (800 ug) at 24 h precipitated with anti-HA antibody or control IgG, blot with anti-Myc and anti-HA.

The target of experiment [1] is T2, endogenous ILKAP protein (human (endogenous in AGS)) (UniProt Q9H0C8).
T2 sequence: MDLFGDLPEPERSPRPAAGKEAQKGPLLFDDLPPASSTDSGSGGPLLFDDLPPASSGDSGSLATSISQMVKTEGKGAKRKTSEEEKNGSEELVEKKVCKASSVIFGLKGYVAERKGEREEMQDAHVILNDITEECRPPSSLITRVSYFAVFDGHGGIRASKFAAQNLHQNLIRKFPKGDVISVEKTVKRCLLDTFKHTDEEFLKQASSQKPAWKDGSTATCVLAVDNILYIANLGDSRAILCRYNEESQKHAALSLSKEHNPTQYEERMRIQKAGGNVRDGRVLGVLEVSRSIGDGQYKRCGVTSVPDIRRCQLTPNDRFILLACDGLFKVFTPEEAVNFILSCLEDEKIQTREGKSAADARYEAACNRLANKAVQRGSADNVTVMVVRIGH
Nature of the experiment: co-IP; endogenous proteins, AGS cell lysates (800 ug) precipitated with anti-ILKAP antibody or control IgG, blot with anti-MAEL and anti-ILKAP.

Experiment [2] deals with T3, Myc-tagged MAEL with the MAEL domain (aa 130-326) deleted (UniProt Q96JY0).
T3 sequence: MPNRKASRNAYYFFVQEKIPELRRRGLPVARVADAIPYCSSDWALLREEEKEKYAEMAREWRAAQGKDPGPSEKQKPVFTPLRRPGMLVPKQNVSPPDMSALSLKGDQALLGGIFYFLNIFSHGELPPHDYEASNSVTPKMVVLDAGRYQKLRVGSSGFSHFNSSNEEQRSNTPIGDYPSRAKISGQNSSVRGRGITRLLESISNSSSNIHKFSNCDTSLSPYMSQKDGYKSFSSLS
Nature of the experiment: co-IP; HEK293 cells co-transfected with HA-ILKAP and Myc-tagged full length or deletion mutants of MAEL, lysates (800 ug) precipitated with anti-Myc antibody, blot with anti-HA and anti-Myc.

B1: Myc-tagged MAEL (full length) (protein, UniProt Q96JY0 1-434)
chain: MPNRKASRNAYYFFVQEKIPELRRRGLPVARVADAIPYCSSDWALLREEEKEKYAEMAREWRAAQGKDPGPSEKQKPVFTPLRRPGMLVPKQNVSPPDMSALSLKGDQALLGGIFYFLNIFSHGELPPHCEQRFLPCEIGCVKYSLQEGIMADFHSFINPGEIPRGFRFHCQAASDSSHKIPISNFERGHNQATVLQNLYRFIHPNPGNWPPIYCKSDDRTRVNWCLKHMAKASEIRQDLQLLTVEDLVVGIYQQKFLKEPSKTWIRSLLDVAMWDYSSNTRCKWHEENDILFCALAVCKKIAYCISNSLATLFGIQLTEAHVPLQDYEASNSVTPKMVVLDAGRYQKLRVGSSGFSHFNSSNEEQRSNTPIGDYPSRAKISGQNSSVRGRGITRLLESISNSSSNIHKFSNCDTSLSPYMSQKDGYKSFSSLS
On to B1, for which the binding entry with HA-tagged ILKAP is given as “binds”.

B2: endogenous MAEL protein (protein, UniProt Q96JY0 1-434)
chain: MPNRKASRNAYYFFVQEKIPELRRRGLPVARVADAIPYCSSDWALLREEEKEKYAEMAREWRAAQGKDPGPSEKQKPVFTPLRRPGMLVPKQNVSPPDMSALSLKGDQALLGGIFYFLNIFSHGELPPHCEQRFLPCEIGCVKYSLQEGIMADFHSFINPGEIPRGFRFHCQAASDSSHKIPISNFERGHNQATVLQNLYRFIHPNPGNWPPIYCKSDDRTRVNWCLKHMAKASEIRQDLQLLTVEDLVVGIYQQKFLKEPSKTWIRSLLDVAMWDYSSNTRCKWHEENDILFCALAVCKKIAYCISNSLATLFGIQLTEAHVPLQDYEASNSVTPKMVVLDAGRYQKLRVGSSGFSHFNSSNEEQRSNTPIGDYPSRAKISGQNSSVRGRGITRLLESISNSSSNIHKFSNCDTSLSPYMSQKDGYKSFSSLS
B2: the binding result in experiment [1] was “binds”.

B3: HA-tagged ILKAP (enzyme, UniProt Q9H0C8 1-392)
chain: MDLFGDLPEPERSPRPAAGKEAQKGPLLFDDLPPASSTDSGSGGPLLFDDLPPASSGDSGSLATSISQMVKTEGKGAKRKTSEEEKNGSEELVEKKVCKASSVIFGLKGYVAERKGEREEMQDAHVILNDITEECRPPSSLITRVSYFAVFDGHGGIRASKFAAQNLHQNLIRKFPKGDVISVEKTVKRCLLDTFKHTDEEFLKQASSQKPAWKDGSTATCVLAVDNILYIANLGDSRAILCRYNEESQKHAALSLSKEHNPTQYEERMRIQKAGGNVRDGRVLGVLEVSRSIGDGQYKRCGVTSVPDIRRCQLTPNDRFILLACDGLFKVFTPEEAVNFILSCLEDEKIQTREGKSAADARYEAACNRLANKAVQRGSADNVTVMVVRIGH
For the molecule B3, in experiment [2], the binding entry is given as “no binding”.

Values taken from publication PMC5768331.
